Laboratory results reported in PubChem BioAssay AID256 (DTP/NCI, 2004).
The list is a part of this screen's results and no random one: it is rich in T/C values a quarter to a half above the control, in often repeated tests (any T/C) and in doses without a T/C. Further doses and runs are listed elsewhere. T/C gives the treated animals as a percentage of the vehicle group. Some entries give survivors of the animals treated and no T/C: the source files T/C as zero there, which appears to mark a toxic dose or a test without result, not a measured value. Some doses without a T/C left all or most animals alive at the check, yet need not have been tolerated: survival well below the control is almost never listed, so the zero probably covers shortened survival too. Survivors were counted at the toxicity check, usually on the fifth day, unless a day is given; later deaths do not show. Schedule codes are those of the source, taken here to give the interval after Q, in days (D) or hours (H), and the number of doses after X. Some entries were tested several times; the values are given in rising order. Where survival is the endpoint, this PubChem deposit counts one and a half times the control or more as active, and values a quarter to a half above the control carry no call in these data; other NCI protocols may use other cut-offs. Some T/C values carry the count of animals alive at the toxicity check (mostly the fifth day); without a count, all were alive then.

System: CD2F1 mice, L1210 leukemia ip, survival T/C
Assay: NCI In Vivo Anticancer Drug Screen. Data for tumor model L1210 Leukemia (intraperitoneal) in CD2F1 (CDF1) mice
Conditions: higher T/C = longer survival
Method in brief: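 Mice carrying a transplanted tumor received test compound or vehicle alone. The value is the measurement in the treated group divided by that in the vehicle-treated control group.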

[1] = T/C endpoint: mean survival time, dose: 12.5 mg/kg/injection, schedule: Q01DX009 (ip), vehicle: saline with Tween-80
[2] = T/C endpoint: mean survival time, dose: 25.0 mg/kg/injection, schedule: Q01DX009 (ip), vehicle: saline with Tween-80

Structure (SMILES): CC(C)(C)OC(=O)NOC(=O)C(C)(C)C
- survivor count (T/C endpoint: mean survival time, dose: 100.0 mg/kg/injection, schedule: Q04DX003 (ip), vehicle: saline with Tween-80): 6 of 6

Structure (SMILES): OC1CCCCCCCCC1Cl (stereo not drawn)
- survivor count (T/C endpoint: mean survival time, dose: 200.0 mg/kg/injection, schedule: Q01DX009 (ip), vehicle: saline with Tween-80): 5 of 6
- survivor count (T/C endpoint: mean survival time, dose: 400.0 mg/kg/injection, schedule: Q01DX009 (ip), vehicle: saline with Tween-80): 0 of 6

Structure (SMILES): CC1CCC2[S][Sn]3([NH]C2C1)[NH]C1CC(C)CCC1[S]3 (stereo not drawn)
- survivor count (T/C endpoint: mean survival time, dose: 400.0 mg/kg/injection, schedule: Q04DX002 (ip), vehicle: saline with Tween-80): 1 of 3

Structure (SMILES): O=C(O)c1ccccc1N(CCO)CCCl
- T/C (T/C endpoint: mean survival time, dose: 6.25 mg/kg/injection, schedule: Q01DX009 (ip), vehicle: saline with Tween-80): 138 % of control
- T/C [1]: 132 and 138 % of control
- survivor count (T/C endpoint: mean survival time, dose: 20.0 mg/kg/injection, schedule: Q01DX009 (ip), vehicle: Klucel (hydroxypropylcellulose) (HPC)): 3 of 6
- survivor count [2]: 0 of 6 and 1 of 6
- survivor count (T/C endpoint: mean survival time, dose: 40.0 mg/kg/injection, schedule: Q01DX009 (ip), vehicle: Klucel (hydroxypropylcellulose) (HPC)): 0 of 6

Structure (SMILES): O/N=C/C=N/O.O/N=C/C=N/O.[Pd]
- survivor count [1]: 0 of 6
- survivor count [2]: 0 of 6
- survivor count (T/C endpoint: mean survival time, dose: 25.0 mg/kg/injection, schedule: Q04DX002 (ip), vehicle: saline with Tween-80): 0 of 3
- survivor count (T/C endpoint: mean survival time, dose: 50.0 mg/kg/injection, schedule: Q04DX002 (ip), vehicle: saline with Tween-80): 0 of 3
- survivor count (T/C endpoint: mean survival time, dose: 100.0 mg/kg/injection, schedule: Q04DX002 (ip), vehicle: saline with Tween-80): 0 of 3

Structure (SMILES): Cc1cc(N(CC(C)Br)CC(C)Br)ccc1N=Nc1ccccc1C(=O)O (stereo not drawn)
- T/C (T/C endpoint: mean survival time, dose: 12.5 mg/kg/injection, schedule: Q01DX009 (ip), vehicle: Klucel (hydroxypropylcellulose) (HPC)): 128 % of control
- T/C [1]: 129, 138, 139 % of control
- survivor count [2]: 5 of 6
- survivor count (T/C endpoint: mean survival time, dose: 50.0 mg/kg/injection, schedule: Q01DX009 (ip), vehicle: Klucel (hydroxypropylcellulose) (HPC)): 0 of 3
- survivor count (T/C endpoint: mean survival time, dose: 100.0 mg/kg/injection, schedule: Q01DX009 (ip), vehicle: Klucel (hydroxypropylcellulose) (HPC)): 0 of 3
- survivor count (T/C endpoint: mean survival time, dose: 200.0 mg/kg/injection, schedule: Q01DX009 (ip), vehicle: Klucel (hydroxypropylcellulose) (HPC)): 0 of 3

Structure (SMILES): CSc1nc(NN)c2cnn(C3OC(CO)C(O)C3O)c2n1 (stereo not drawn)
- survivor count (T/C endpoint: median survival time, dose: 180.0 mg/kg/injection, schedule: Q01DX005 (ip), vehicle: saline with Tween-80): 0 of 5

Structure (SMILES): CC(C)=NNC(=O)CC(=O)NN=C(C)C
- T/C (T/C endpoint: mean survival time, dose: 400.0 mg/kg/injection, schedule: Q01DX009 (ip), vehicle: saline sonified): 130 % of control [5 of 6 alive]

Structure (SMILES): [I][Pt+2][I].[NH-]c1ccc(F)cc1.[NH-]c1ccc(F)cc1
- survivor count (T/C endpoint: mean survival time, dose: 200.0 mg/kg/injection, schedule: Q04DX003 (ip), vehicle: distilled water + Tween-80): 2 of 6

Structure (SMILES): CC1OC(OC(=O)c2ccc([N+](=O)[O-])cc2)CC(NC(=O)C(F)(F)F)C1OC(=O)c1ccc([N+](=O)[O-])cc1 (stereo not drawn)
- survivor count (T/C endpoint: mean survival time, dose: 100.0 mg/kg/injection, schedule: Q01DX005 (ip), vehicle: Klucel (hydroxypropylcellulose) (HPC)): 3 of 4
- survivor count (T/C endpoint: mean survival time, dose: 200.0 mg/kg/injection, schedule: Q01DX005 (ip), vehicle: Klucel (hydroxypropylcellulose) (HPC)): 3 of 4
- survivor count (T/C endpoint: mean survival time, dose: 400.0 mg/kg/injection, schedule: Q01DX005 (ip), vehicle: Klucel (hydroxypropylcellulose) (HPC)): 1 of 4

Structure (SMILES): CN(N)C1CCCCC1
- survivor count (T/C endpoint: mean survival time, dose: 300.0 mg/kg/injection, schedule: Q01DX001 (ip), vehicle: saline): 3 of 6

Structure (SMILES): CCCOP(=O)(N1CC1(C)C)N1CC1(C)C (stereo not drawn)
- T/C (T/C endpoint: mean survival time, dose: 25.0 mg/kg/injection, schedule: Q04DX003 (ip), vehicle: saline): 126 % of control
- T/C (T/C endpoint: mean survival time, dose: 50.0 mg/kg/injection, schedule: Q01DX009 (ip), vehicle: saline): 148 % of control
- survivor count (T/C endpoint: mean survival time, dose: 200.0 mg/kg/injection, schedule: Q01DX009 (ip), vehicle: saline): 3 of 6 and 6 of 6
- survivor count (T/C endpoint: mean survival time, dose: 200.0 mg/kg/injection, schedule: Q04DX003 (ip), vehicle: saline): 3 of 6

Structure (SMILES): OCC1OC(n2cnc3c(NCCc4ccc(O)c(O)c4)ncnc32)C(O)C1O (stereo not drawn)
- survivor count (T/C endpoint: mean survival time, dose: 100.0 mg/kg/injection, schedule: Q01DX005 (ip), vehicle: saline with Tween-80): 3 of 6
- survivor count (T/C endpoint: mean survival time, dose: 200.0 mg/kg/injection, schedule: Q01DX005 (ip), vehicle: saline with Tween-80): 1 of 6
